Source: publication PMC8812845

The chains behind the UniProt entries cited, without tags or fusion partners.
UniProt Q9UKA9: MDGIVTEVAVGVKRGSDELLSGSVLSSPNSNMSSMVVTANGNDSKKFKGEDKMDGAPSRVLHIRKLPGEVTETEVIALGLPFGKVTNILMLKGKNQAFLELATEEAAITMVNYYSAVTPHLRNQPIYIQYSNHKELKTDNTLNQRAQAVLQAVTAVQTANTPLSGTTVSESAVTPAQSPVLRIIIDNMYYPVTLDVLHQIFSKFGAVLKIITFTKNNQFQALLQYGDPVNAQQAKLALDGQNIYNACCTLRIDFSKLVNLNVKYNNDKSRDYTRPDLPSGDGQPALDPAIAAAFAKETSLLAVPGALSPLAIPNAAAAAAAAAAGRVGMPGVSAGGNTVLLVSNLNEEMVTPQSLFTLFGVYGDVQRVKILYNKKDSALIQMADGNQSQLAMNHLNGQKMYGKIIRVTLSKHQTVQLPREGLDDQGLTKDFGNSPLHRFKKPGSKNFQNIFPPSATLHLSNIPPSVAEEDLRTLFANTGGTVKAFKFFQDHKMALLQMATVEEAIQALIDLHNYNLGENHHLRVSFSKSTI

Tests used:
[1] = molecular target: His6-tagged PTBP1 (human); experiment: affinity purification with mass spectrometry; 48 ug His6-PTBP incubated in 200 ul splicing reaction (2.2 mM MgCl2, 0.4 mM ATP, 20 mM creatine phosphate, HeLa nuclear extract) at 30°C for 90 min; captured on HisPur Ni-NTA magnetic resin overnight at 4°C, washed (150 mM NaCl, 30 mM imidazole), eluted with 300 mM imidazole; LC-MS/MS; proteins of the Buffer DG and HeLa only controls and common contaminants removed; only the target purified
[2] = molecular target: His6-tagged PTBP2 (human) (UniProt Q9UKA9); experiment: as above

| binding [1] | binding [2] | Binder |
| --- | --- | --- |
| binds |  | PSPC1 (protein, UniProt Q8WXF1 1-523) MMLRGNLKQVRIEKNPARLRALESAVGESEPAAAAAMALALAGEPAPPAPAPPEDHPDEEMGFTIDIKSFLKPGEKTYTQRCRLFVGNLPTDITEEDFKRLFERYGEPSEVFINRDRGFGFIRLESRTLAEIAKAELDGTILKSRPLRIRFATHGAALTVKNLSPVVSNELLEQAFSQFGPVEKAVVVVDDRGRATGKGFVEFAAKPPARKALERCGDGAFLLTTTPRPVIVEPMEQFDDEDGLPEKLMQKTQQYHKEREQPPRFAQPGTFEFEYASRWKALDEMEKQQREQVDRNIREAKEKLEAEMEAARHEHQLMLMRQDLMRRQEELRRLEELRNQELQKRKQIQLRHEEEHRRREEEMIRHREQEELRRQQEGFKPNYMENREQEMRMGDMGPRGAINMGDAFSPAPAGNQGPPPMMGMNMNNRATIPGPPMGPGPAMGPEGAANMGTPMMPDNGAVHNDRFPQGPPSQMGSPMGSRTGSETPQAPMSGVGPVSGGPGGFGRGSQGGNFEGPNKRRRY |
| binds |  | OLIG2 (protein, UniProt Q13516 1-323) MDSDASLVSSRPSSPEPDDLFLPARSKGSSGSAFTGGTVSSSTPSDCPPELSAELRGAMGSAGAHPGDKLGGSGFKSSSSSTSSSTSSAAASSTKKDKKQMTEPELQQLRLKINSRERKRMHDLNIAMDGLREVMPYAHGPSVRKLSKIATLLLARNYILMLTNSLEEMKRLVSEIYGGHHAGFHPSACGGLAHSAPLPAATAHPAAAAHAAHHPAVHHPILPPAAAAAAAAAAAAAVSSASLPGSGLPSVGSIRPPHGLLKSPSAAAAAPLGGGGGGSGASGGFQHWGGMPCPCSMCQVPPPHHHVSAMGAGSLPRLTSDAK |
| binds | binds | SARNP (protein, UniProt P82979 1-210) MATETVELHKLKLAELKQECLARGLETKGIKQDLIHRLQAYLEEHAEEEANEEDVLGDETEEEETKPIELPVKEEEPPEKTVDVAAEKKVVKITSEIPQTERMQKRAERFNVPVSLESKKAARAARFGISSVPTKGLSSDNKPMVNLDKLKERAQRFGLNVSSISRKSEDDEKLKKRKERFGIVTSSAGTGTTEDTEAKKRKRAERFGIA |
| binds |  | Serine–Arginine related protein 53 (protein, UniProt Q96IZ7 1-334) MGRRSSDTEEESRSKRKKKHRRRSSSSSSSDSRTYSRKKGGRKSRSKSRSWSRDLQPRSHSYDRRRRHRSSSSSSYGSRRKRSRSRSRGRGKSYRVQRSRSKSRTRRSRSRPRLRSHSRSSERSSHRRTRSRSRDRERRKGRDKEKREKEKDKGKDKELHNIKRGESGNIKAGLEHLPPAEQAKARLQLVLEAAAKADEALKAKERNEEEAKRRKEEDQATLVEQVKRVKEIEAIESDSFVQQTFRSSKEVKKSVEPSEVKQATSTSGPASAVADPPSTEKEIDPTSIPTAIKYQDDNSLAHPNLFIEKADAEEKWFKRLIALRQERLMGSPVA |
| binds | binds | ATN1 (protein, UniProt P54259 1-1190) MKTRQNKDSMSMRSGRKKEAPGPREELRSRGRASPGGVSTSSSDGKAEKSRQTAKKARVEEASTPKVNKQGRSEEISESESEETNAPKKTKTEQELPRPQSPSDLDSLDGRSLNDDGSSDPRDIDQDNRSTSPSIYSPGSVENDSDSSSGLSQGPARPYHPPPLFPPSPQPPDSTPRQPEASFEPHPSVTPTGYHAPMEPPTSRMFQAPPGAPPPHPQLYPGGTGGVLSGPPMGPKGGGAASSVGGPNGGKQHPPPTTPISVSSSGASGAPPTKPPTTPVGGGNLPSAPPPANFPHVTPNLPPPPALRPLNNASASPPGLGAQPLPGHLPSPHAMGQGMGGLPPGPEKGPTLAPSPHSLPPASSSAPAPPMRFPYSSSSSSSAAASSSSSSSSSSASPFPASQALPSYPHSFPPPTSLSVSNQPPKYTQPSLPSQAVWSQGPPPPPPYGRLLANSNAHPGPFPPSTGAQSTAHPPVSTHHHHHQQQQQQQQQQQQQQQQQQQHHGNSGPPPPGAFPHPLEGGSSHHAHPYAMSPSLGSLRPYPPGPAHLPPPHSQVSYSQAGPNGPPVSSSSNSSSSTSQGSYPCSHPSPSQGPQGAPYPFPPVPTVTTSSATLSTVIATVASSPAGYKTASPPGPPPYGKRAPSPGAYKTATPPGYKPGSPPSFRTGTPPGYRGTSPPAGPGTFKPGSPTVGPGPLPPAGPSGLPSLPPPPAAPASGPPLSATQIKQEPAEEYETPESPVPPARSPSPPPKVVDVPSHASQSARFNKHLDRGFNSCARSDLYFVPLEGSKLAKKRADLVEKVRREAEQRAREEKEREREREREKEREREKERELERSVKLAQEGRAPVECPSLGPVPHRPPFEPGSAVATVPPYLGPDTPALRTLSEYARPHVMSPGNRNHPFYVPLGAVDPGLLGYNVPALYSSDPAAREREREARERDLRDRLKPGFEVKPSELEPLHGVPGPGLDPFPRHGGLALQPGPPGLHPFPFHPSLGPLERERLALAAGPALRPDMSYAERLAAERQHAERVAALGNDPLARLQMLNVTPHHHQHSHIHSHLHLHQQDAIHAASASVHPLIDPLASGSHLTRIPYPAGTLPNPLLPHPLHENEVLRHQLFAAPYRDLPASLSAPMSAAHQLQAMHAQSAELQRLALEQQQWLHAHHPLHSVPLPAQEDYYSHLKKESDKPL |
| binds | binds | AIP (protein, UniProt O00170 1-330) MADIIARLREDGIQKRVIQEGRGELPDFQDGTKATFHYRTLHSDDEGTVLDDSRARGKPMELIIGKKFKLPVWETIVCTMREGEIAQFLCDIKHVVLYPLVAKSLRNIAVGKDPLEGQRHCCGVAQMREHSSLGHADLDALQQNPQPLIFHMEMLKVESPGTYQQDPWAMTDEEKAKAVPLIHQEGNRLYREGHVKEAAAKYYDAIACLKNLQMKEQPGSPEWIQLDQQITPLLLNYCQCKLVVEEYYEVLDHCSSILNKYDDNVKAYFKRGKAHAAVWNAQEAQADFAKVLELDPALAPVVSRELRALEARIRQKDEEDKARFRGIFSH |
| binds | binds | RBM33 (protein, UniProt Q96EV2 1-1170) MAAALGASGGAGAGDDDFDQFDKPGAERSWRRRAADEDWDSELEDDLLGEDLLSGKKNQSDLSDEELNDDLLQSDNEDEENFSSQGVTISLNATSGMVTSFELSDNTNDQSGEQESEYEQEQGEDELVYHKSDGSELYTQEYPEEGQYEGHEAELTEDQIEYVEEPEEEQLYTDEVLDIEINEPLDEFTGGMETLELQKDIKEESDEEEEDDEESGRLRFKTERKEGTIIRLSDVTRERRNIPETLELSAEAKAALLEFEERERQHKQGRYSSRRGGRRGGPLMCRGVGDQRRESTERGRMKDHRPALLPTQPPVVPQAPPPPPPPPQQQPIRSLFQPQPLQPLLPVQHPHHPSPPQGMHMPPQLETPRMMMTPPPVTPQQPKNIHINPHFKGTVVTPVQVPLLPVPSQPRPAVGPQRFPGPPEFPQHTPGPVPNSFSQPPRLPLQDQWRAPPPPQDRDPFFLGVSGEPRFPSHLFLEQRSPPPPPPPPTLLNSSHPVPTQSPLPFTQPGPAFNQQGQQPVFPRERPVRPALQPPGPVGILHFSQPGSATTRPFIPPRQPFLPGPGQPFLPTHTQPNLQGPLHPPLPPPHQPQPQQPQQQPPPQHQPPHQPPHQPPPQHQPPPQHPPQHPPQHQHHHHHHHLSVPPPPLMPMSQPQFRPHVQTAQPQASSSRMQCPQRQGLRHNTTSQNVSKRPMQQMQPTAPRNSNLRELPIAPSHVIEMSSSRCSATPSAQVKPIVSASPPSRAVAGSRSSQGKTEVKVKPASPVAQPKEEAKTETEFPDEDEETRLYRLKIEEQKRLREEILKQKELRRQQQAGARKKELLERLAQQQQQLYAPPPPAEQEEQALSPSPTNGNPLLPFPGAQVRQNVKNRLLVKNQDVSISNVQPKTSNFVPSSANMQYQGQQMKALKHLRQTRTVPQSQTQPLHKVLPIKPADVEEPAVPQTPRVASIQGRPQDTKPGVKRTVTHRTNSGGGDGPHISSKVRVIKLSGGGGESDGFFHPEGQPQRLPQPPEVGPQPARKVTLTRGGLQQPPHLPAGPHAHSPVPPGIKSIQGIHPAKKAIMHGRGRGVAGPMGRGRLMPNKQNLRVVECKPQPCVVSVEGLSSSTTDAQLKSLLMSVGPIQSLQMLPQQRKAIAKFKEPAHALAFQQKFHRHMIDLSHINVALIVE |
| binds |  | SNRNP27 (protein, UniProt Q8WVK2 1-155) MGRSRSRSPRRERRRSRSTSRERERRRRERSRSRERDRRRSRSRSPHRRRSRSPRRHRSTSPSPSRLKERRDEEKKETKETKSKERQITEEDLEGKTEEEIEMMKLMGFASFDSTKGKKVDGSVNAYAINVSQKRKYRQYMNRKGGFNRPLDFIA |
| binds |  | RYBP (protein, UniProt Q8N488 1-228) MTMGDKKSPTRPKRQAKPAADEGFWDCSVCTFRNSAEAFKCSICDVRKGTSTRKPRINSQLVAQQVAQQYATPPPPKKEKKEKVEKQDKEKPEKDKEISPSVTKKNTNKKTKPKSDILKDPPSEANSIQSANATTKTSETNHTSRPRLKNVDRSTAQQLAVTVGNVTVIITDFKEKTRSSSTSSSTVTSSAGSEQQNQSSSGSESTDKGSSRSSTPKGDMSAVNDESF |
| binds | binds | CHRC1 (protein, UniProt Q9NRG0 1-131) MADVVVGKDKGGEQRLISLPLSRIRVIMKSSPEVSSINQEALVLTAKATELFVQCLATYSYRHGSGKEKKVLTYSDLANTAQQSETFQFLADILPKKILASKYLKMLKEEKREEDEENDNDNESDHDEADS |

No constants are given. Whether binding was seen depends on the method and setting. Binding seen in cells or lysates may run through a third protein. These calls come from enrichment with a bait or labelling near it, and not all partners need be listed.
